“And” between values parts separate entries of the source, which are not always exact repeats. Equal values may be shown once. Where a name gives a salt, the structure may show the parent alone. ± gives the standard deviation of the averaged measurements. Some of the results follow. Single values of this set are uncertain.

The assay deals with Salmonella enterica serovar Typhimurium ST313 D23580. Description: normalized bacterial growth (OD600 20 h minus 0 h, interquartile-mean normalized) (fraction of plate interquartile mean); higher = more bacterial growth (less inhibition). The settings on record: LPM (pH 5.8, low phosphate, low Mg2+), concentration: 10 µM, temperature: 37 °C.
Compound `C[N+](C)(C)CCO.[Br-]` [Choline bromide] yielded a normalized bacterial growth of 1.06. The value for `O=c1[nH]cc(F)c(=O)[nH]1` [5-Fluorouracil] was 0.141.

`O=C(O)c1cc(=O)c2cccc(O)c2[nH]1` yielded a normalized bacterial growth of 1.23. The value for `C[C@]12C=CC(=O)C=C1CC[C@@H]1[C@@H]2[C@@H](O)C[C@@]2(C)[C@H]1CC[C@]2(O)C(=O)CO` [Prednisolone] was 0.924; that for `C[C@]12C=CC(=O)C=C1CC[C@@H]1[C@@H]2[C@@H](O)C[C@@]2(C)[C@H]1CC[C@]2(O)C(=O)CO` was 1.

`CC(C)Cc1ccc([C@H](C)C(=O)O)cc1` [S(+)-Ibuprofen]: the normalized bacterial growth worked out at 1.16. The value for `CS(=O)(=O)c1ccc([C@@H](O)[C@@H](CO)NC(=O)C(Cl)Cl)cc1` was 1.22; that for `NS(=O)(=O)c1cc2c(cc1Cl)N=C(CSCc1ccccc1)NS2(=O)=O` was 1.21; that for `CC(=O)OC/C=C(C)/C=C/C=C(C)/C=C/C1=C(C)CCCC1(C)C` was 0.666. In turn, `O=C1C(CC[S+]([O-])c2ccccc2)C(=O)N(c2ccccc2)N1c1ccccc1` (stereo not drawn) showed a normalized bacterial growth of 1.03. `Cc1ccccc1/C=C/C1=NCCN1` [Metrazoline oxalate] gave a normalized bacterial growth of 1.09. `COc1ccc(CCN(C)CCc2ccc(OC)c(OC)c2)cc1OC` [YS-035 hydrochloride] yielded a normalized bacterial growth of 0.692. Compound `CC[N+](CC)(CC)CC` [Tetraethylammonium chloride] registered a normalized bacterial growth of 0.962. For `CC[C@@]1(O)C(=O)OCc2c1cc1n(c2=O)Cc2cc3cc(O)ccc3nc2-1` the value was 1.3 and 0.787; for `CO[C@@]1(NC(=O)C(C(=O)O)c2ccc(O)cc2)C(=O)N2C(C(=O)O)=C(CSc3nnnn3C)CO[C@@H]21` (stereo partly drawn), 1.11. `CO[C@@]1(NC(=O)C(C(=O)O)c2ccc(O)cc2)C(=O)N2C(C(=O)O)=C(CSc3nnnn3C)CO[C@@H]21` (stereo partly drawn) [Moxalactam disodium salt] gave a normalized bacterial growth of 0.6. Compound `O=c1c(O)c(-c2ccccc2)oc2ccccc12` displayed a normalized bacterial growth of 0.45. The compound `C#C[C@]1(O)CC[C@H]2[C@@H]3CCC4=CC(=O)CC[C@@H]4[C@H]3CC[C@@]21C` [Norethindrone] returned a normalized bacterial growth of 1.13. `C#C[C@]1(O)CC[C@H]2[C@@H]3CCC4=CC(=O)CC[C@@H]4[C@H]3CC[C@@]21C` displayed a normalized bacterial growth of 1.27.

`COc1cc2c(CCNC(C)=O)c[nH]c2cc1O` [6-Hydroxymelatonin] displayed a normalized bacterial growth of 0.906. For `C#C[C@]1(OC(C)=O)CC[C@H]2[C@@H]3CCC4=C[C@@H](OC(C)=O)CC[C@@H]4[C@H]3CC[C@@]21C` the value was 1.01; for `C#C[C@]1(OC(C)=O)CC[C@H]2[C@@H]3CCC4=C[C@@H](OC(C)=O)CC[C@@H]4[C@H]3CC[C@@]21C` [Ethynodiol diacetate], 0.943; for `C[C@@H]1CC[C@@]2(OC1)O[C@H]1C[C@H]3[C@@H]4CC[C@H]5C[C@@H](O)CC[C@]5(C)[C@H]4CC[C@]3(C)[C@H]1[C@@H]2C`, 1.03. `Nc1ccc(S(=O)(=O)Nc2ncccn2)cc1` showed a normalized bacterial growth of 1.19.

Regarding `CCC(=O)O[C@H](CC(=O)O)C[N+](C)(C)C`, the normalized bacterial growth amounted to 1.19.

In the case of `Clc1ccccc1CN1CCc2sccc2C1`, the normalized bacterial growth is 1.04. In turn, `CCN(CC)CCOC(=O)C1(c2ccc([N+](=O)[O-])cc2)CCCC1` [Nitrocaramiphen hydrochloride] returned a normalized bacterial growth of 1.1. The value for `Cc1cc(OC(=O)c2c(C)cc(O)cc2O)cc(O)c1C(=O)O` was 1.24; that for `Nc1ccc(O)c(C(=O)O)c1` was 1.3.

In the case of `Cc1cc(C(C)(C)CC(C)(C)C)ccc1OCCOCC[N+](C)(C)Cc1ccccc1`, the normalized bacterial growth amounted to 0.0657.

The compound `Cc1cc(NC(=O)C2=C(O)c3ccccc3S(=O)(=O)N2C)no1` returned a normalized bacterial growth of 0.877. For `CN(C)CCCN1c2ccccc2CCc2ccc(Cl)cc21` [Clomipramine hydrochloride] the value was 1.02; for `CO[C@@]1(NC(=O)C2SC(=C(C(N)=O)C(=O)O)S2)C(=O)N2C(C(=O)O)=C(CSc3nnnn3C)CS[C@@H]21` (stereo partly drawn) [Cefotetan], 0.0401. The value for `COC(=O)C1=C(C)NC(C)=C(C(=O)OC)C1c1ccccc1[N+](=O)[O-]` [Nifedipine] was 0.805; that for `CNC(=O)[C@H]1O[C@@H](n2cnc3c(NCc4ccc(N)cc4)ncnc32)[C@H](O)[C@@H]1O` was 0.715. For `COc1cc2c(cc1O)CC[C@@H]1[C@@H]2CC[C@]2(C)[C@@H](O)CC[C@@H]12` [2-methoxyestradiol] the value was 0.841; for `C#C[C@]1(O)CC[C@H]2[C@@H]3CCc4cc(OC)ccc4[C@H]3CC[C@@]21C` [Ethynylestradiol 3-methyl ether], 0.746; for `C#C[C@]1(O)CC[C@H]2[C@@H]3CCc4cc(OC)ccc4[C@H]3CC[C@@]21C`, 1.18. `CC(C)NCC(O)c1ccc(NS(C)(=O)=O)cc1` (stereo not drawn) [()-Sotalol hydrochloride] displayed a normalized bacterial growth of 0.865.

Compound `CC1=C(C)C(=O)C(CCCCC#CCCCC#CCO)=C(C)C1=O` displayed a normalized bacterial growth of 0.642. For `CN(C)CCCCSC(=N)N` the value was 1.19; for `CC(=O)N1CCN(c2ccc(OCC3COC(Cn4ccnc4)(c4ccc(Cl)cc4Cl)O3)cc2)CC1` (stereo not drawn) [Ketoconazole], 0.819. For `CC(=O)N1CCN(c2ccc(OCC3COC(Cn4ccnc4)(c4ccc(Cl)cc4Cl)O3)cc2)CC1` (stereo not drawn) the value was 0.748; for `CCN(CC)CCCC(C)Nc1c2ccc(Cl)cc2nc2ccc(OC)cc12` (stereo not drawn) [Quinacrine dihydrochloride dihydrate], 1.04; for `CCN(CC)CCCC(C)Nc1c2ccc(Cl)cc2nc2ccc(OC)cc12` (stereo not drawn) [Quinacrine dihydrochloride], 0.559. For `COc1ccc(/C=C/c2cc(OC)cc(=O)o2)cc1` the value was 0.985; for `Cc1nc(C)c(Cl)c(O)c1Cl`, 1.12; for `CC1(C)C2CC(=O)O[C@@]3(C)C4=CC(=O)O[C@@H](c5ccoc5)[C@]4(C)CCC3[C@@]2(C)C=C[C@H]1O` (stereo partly drawn), 0.888. In the case of `CCCCCCCCCCCCCCCC[N+](C)(C)CCN(Cc1ccc(OC)cc1)c1ncccn1` [Thonzonium bromide], the normalized bacterial growth was found to be 0.134. On to `O=C(O)P(=O)(O)O`, for which the normalized bacterial growth was found to be 1.21.

Take `CC(=O)O[C@@H]1C[C@@]2(C)C(CC[C@@H]2C(C)=O)C2CCC3=CC(=O)CC[C@]3(C)C21` (stereo partly drawn): the normalized bacterial growth worked out at 1.05. The value for `CNc1cc(NS(=O)(=O)c2ccc(N)cc2)nc(NC)n1` [Ro 04-6790 dihydrochloride] was 1.05; that for `CO[C@H]1C[C@@H]2CC[C@@H](C)[C@@](O)(O2)C(=O)C(=O)N2CCCC[C@H]2C(=O)O[C@H]([C@H](C)C[C@@H]2CC[C@@H](O)[C@H](OC)C2)CC(=O)[C@H](C)/C=C(\C)[C@@H](O)[C@@H](OC)C(=O)[C@H](C)C[C@H](C)/C=C/C=C/C=C/1C` was 1.08 and 1.35; that for `COC(=O)C[C@H]1C(C)(C)[C@@H](OC(C)=O)[C@@H]2CC3=C4CC(=O)O[C@@H](c5ccoc5)[C@]4(C)CC[C@@H]3[C@@]1(C)C2=O` was 1.05.

Consider `[Cl-].[Li+]` [Lithium Chloride], for which the normalized bacterial growth is 1.01. In the case of `CCN(CC)CCNC(=O)c1ccc(NC(C)=O)cc1` [N-Acetylprocainamide hydrochloride], the normalized bacterial growth was found to be 0.995.

For the compound `CCCCCCN(CCCCCC)C(=O)Cc1c(-c2ccc(F)cc2)[nH]c2ccccc12` ["N,N-Dihexyl-2-(4-fluorophenyl)indole-3-acetamide"], the normalized bacterial growth was found to be 0.996.

For the compound `CC(=O)NNC(=O)N1Cc2ccccc2Oc2ccc(Cl)cc21`, the normalized bacterial growth came out at 0.973. Turning to `CNC[C@H](O)c1cccc(O)c1` [Phenylephrine hydrochloride], the normalized bacterial growth came to 1.13. The value for `CC(C)(CO)[C@@H](O)C(=O)NCCCO` was 1.14. For `CC(C(=O)O)[C@H]1CCC2C3CC=C4C[C@@H](O)CC[C@]4(C)C3CC[C@@]21C` (stereo partly drawn) ["3beta-HYDROXY-23,24-BISNORCHOL-5-ENIC ACID"] the value was 1.14; for `COc1cc2c(cc1OC)-c1cc3ccc(OC)c(OC)c3c[n+]1CC2`, 0.956 and 0.942; for `COC(=O)[C@H]1[C@H]2C[C@@H]3c4[nH]c5cc(OC)ccc5c4CCN3C[C@H]2C[C@@H](OC(=O)c2cc(OC)c(OC)c(OC)c2)[C@@H]1OC`, 0.728. Consider `CC(=O)C12OC(C)(c3ccccc3)OC1CC1C3CCC4=CC(=O)CCC4(C)C3CCC12C` (stereo not drawn), for which the normalized bacterial growth was 0.788. For `CC(C)C[C@H](NC(=O)[C@@H](O)[C@H](N)Cc1ccccc1)C(=O)O` [Bestatin hydrochloride] the value was 1.21; for `CNC(=C[N+](=O)[O-])NCCSCc1ccc(CN(C)C)o1` [Ranitidine hydrochloride], 0.767 ± 0.062. The value for `CNC(=C[N+](=O)[O-])NCCSCc1ccc(CN(C)C)o1` was 0.523. The value for `C=CCc1ccc(O)c(-c2ccc(O)c(CC=C)c2)c1` was 1.17.

For `O=C(O)CN(CCOCCOCCN(CC(=O)O)CC(=O)O)CC(=O)O`, the normalized bacterial growth turned out to be 1. For `O=c1c(-c2ccc(O)cc2)coc2cc(O)cc(O)c12` [Genistein] the value was 1.15; for `O=c1c(-c2ccc(O)cc2)coc2cc(O)cc(O)c12`, 1.19. For `O=C1C=C2CC3(O)COc4cc(O)ccc4C3=C2C=C1O` (stereo not drawn), the normalized bacterial growth turned out to be 0.879.

On to `N[C@H](Cc1ccccc1)C(=O)O`, for which the normalized bacterial growth turned out to be 1.24.

On to `O=C1C=CC(=C(c2ccc(O)cc2)c2ccc(O)cc2)C=C1`, for which the normalized bacterial growth was 1.14.

For the compound `CCCc1nc(C)c2c(O)nc(-c3cc(S(=O)(=O)N4CCN(CC)CC4)ccc3OCC)nn12`, the normalized bacterial growth was found to be 0.659. The value for `CC(=O)Nc1ccc(S(=O)(=O)Nc2ccc([N+](=O)[O-])cc2)cc1` was 0.916. The value for `Cc1ccc(C(=O)Nc2ccc(S(=O)(=O)O)c3cc(S(=O)(=O)O)cc(S(=O)(=O)O)c23)cc1NC(=O)c1cccc(NC(=O)Nc2cccc(C(=O)Nc3cc(C(=O)Nc4ccc(S(=O)(=O)O)c5cc(S(=O)(=O)O)cc(S(=O)(=O)O)c45)ccc3C)c2)c1` [Suramin sodium salt] was 0.962. For `CCc1cc(C(N)=S)ccn1` the value was 0.555; for `CC(=O)Nc1c(I)c(NC(C)=O)c(I)c(C(=O)O)c1I`, 0.979.

Compound `Cn1cc(C2=C(c3ccc(Cl)cc3Cl)C(=O)NC2=O)c2ccccc21` yielded a normalized bacterial growth of 0.967. In the case of `CN1CCN(C(c2ccccc2)c2ccc(Cl)cc2)CC1` (stereo not drawn), the normalized bacterial growth came out at 0.882.

For `Cc1ccc(C(C)C)cc2c(C)ccc1-2`, the normalized bacterial growth was determined as 0.722.

`Nc1ncnc2c1ncn2[C@@H]1O[C@H](COP(=O)(O)CP(=O)(O)OP(=O)(O)O)[C@H](O)C1O` (stereo partly drawn) ["alpha,beta-Methylene adenosine 5'-triphosphate dilithium"] displayed a normalized bacterial growth of 1.38.

These data come from the supplement of paper PMC10398353.
